Measured values: publication PMC12186327

Molecular target: GST-fused VPS26
Test: pull-down; GST fusion proteins on glutathione-conjugated agarose beads incubated with in vitro translated, biotinylated-lysine-labeled SORLA-C; bound probe detected colorimetrically after SDS-PAGE; only the target purified

B1: SORLA-C (signal peptide a.a. 1-34 joined to the C terminal sequence a.a. 2111-2214 of SORLA) (domain or fragment, UniProt Q92673 1-34; Q92673 2111-2214)
chain: MATRSSRRESRLPFLFTLVALLPPGALCEVWTQRPAILLYDELGSGADASATQAARSTDVAAVVVPILFLILLSLGVGFAILYTKHRRLQSSFTAFANSHYSSRLGSAIFSSGDDLGEDDEDAPMITGFSDDVPMVIA
modifications: biotinylated lysine (Transcend tRNA) incorporated during in vitro translation
binding: binds

Results are given in words; binding and its absence hold for the method and conditions named. Binding seen in cells or lysates may run through a third protein. Binding can be weak; no strength is given.
